Results published in patent US20230122911A1, “FORMULATIONS OF ENZALUTAMIDE” (Astellas Pharma Inc., priority 2012, published 2023).
The name of at least one read-out is uncertain.

Assay: Membrane-permeation (MP) dissolution test
Assay type: in vitro ADME
Procedure: The membrane permeability test described in the Examples below is carried out as follows. A drug-permeable membrane is placed between feed and permeate reservoirs. A sufficient quantity of test composition is added to a feed test medium and placed in the feed reservoir, while a water immiscible organic solution, such as a 60/40 mixture of decanol/decane, is placed in the permeate reservoir. Samples are removed from the permeate reservoir and analyzed for the concentration of drug as a function of time. […] Further details of this membrane permeation test are disclosed in U.S. Pat. No 7,611,630 B2.
The MP-dissolution test, whose details are described above, measures a capability of low solubility drug formulations which is not measured in the microcentrifuge dissolution test utilized in Examples 4 and 7. This test mimics an aspect of the in vivo situation in the GI tract. In the in vivo situation, it is generally accepted that free drug in solution (i.e. individual drug molecules dissolved in the GI medium without association with formulation components) is the species which is absorbed across the gastrointestinal wall into the bloodstream. As free drug is absorbed, the formulation must be capable of supplying more free drug for absorption. The membrane permeation test measures the amount of drug which crosses a polymeric membrane (as a model of the GI wall) over time, and thus reflects the ability of the formulation to resupply free drug in solution to be further passively transported across the polymeric membrane. In Table 8.1 below, Maximum Flux is the maximum observed rate of permeation across the polymeric membrane, based on the slope of the absorption curve over any period within the 240 minute duration of the experiment, normalized for membrane area. Total drug recovery is the % of the initial drug dose which has crossed the membrane when the test ended at 240 minutes.

| SMILES | Total Drug Recovery (Table 8.1, % of initial dose across membrane at 240 minutes, listed as Amorphous (spray-dried) enzalutamide) | Total Drug Recovery (Table 8.1, % of initial dose across membrane at 240 minutes) | Total Drug Recovery (Table 9.3) |
| --- | --- | --- | --- |
| CNC(=O)c1ccc(N2C(=S)N(c3ccc(C#N)c(C(F)(F)F)c3)C(=O)C2(C)C)cc1F [Amorphous enzalutamide, 4-{3-[4-cyano-3-(trifluoromethyl)phenyl]-5,5-dimethyl-4-oxo-2-sulfanylideneimidazolidin-1-yl}-2-fluoro-N-methylbenzamide] | 56% | – | – |
| CNC(=O)c1ccc(N2C(=S)N(c3ccc(C#N)c(C(F)(F)F)c3)C(=O)C2(C)C)cc1F [Control 1, 4-{3-[4-cyano-3-(trifluoromethyl)phenyl]-5,5-dimethyl-4-oxo-2-sulfanylideneimidazolidin-1-yl}-2-fluoro-N-methylbenzamide] | – | 28% | 35% |
